Measurements taken from paper PMC4258025.
Results are given in words; binding and its absence hold for the method and conditions named. In cells and extracts the contact can be indirect.

Target: T1, sirtuin1 (SIRT1) (human (endogenous in OECM1 and HSC3)), Q96EB6
T1 chain: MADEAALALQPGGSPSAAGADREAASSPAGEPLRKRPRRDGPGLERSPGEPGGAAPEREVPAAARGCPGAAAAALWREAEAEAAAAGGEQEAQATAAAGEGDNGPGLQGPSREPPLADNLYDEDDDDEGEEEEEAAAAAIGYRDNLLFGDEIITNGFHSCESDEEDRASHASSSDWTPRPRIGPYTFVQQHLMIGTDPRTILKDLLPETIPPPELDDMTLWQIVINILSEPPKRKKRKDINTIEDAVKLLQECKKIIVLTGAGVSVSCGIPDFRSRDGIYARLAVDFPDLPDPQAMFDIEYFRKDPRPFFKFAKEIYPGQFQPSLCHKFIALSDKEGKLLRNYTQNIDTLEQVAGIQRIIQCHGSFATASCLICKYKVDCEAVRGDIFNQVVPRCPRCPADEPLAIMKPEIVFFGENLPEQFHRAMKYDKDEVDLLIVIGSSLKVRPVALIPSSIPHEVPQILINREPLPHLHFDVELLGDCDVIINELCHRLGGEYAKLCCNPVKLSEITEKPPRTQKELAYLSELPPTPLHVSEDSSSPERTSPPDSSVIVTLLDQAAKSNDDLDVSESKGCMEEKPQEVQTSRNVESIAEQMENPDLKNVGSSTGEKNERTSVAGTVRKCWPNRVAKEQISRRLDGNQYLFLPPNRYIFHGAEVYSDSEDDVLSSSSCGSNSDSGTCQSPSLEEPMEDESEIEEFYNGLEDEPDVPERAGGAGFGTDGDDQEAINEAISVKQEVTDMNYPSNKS
Test: co-IP; nuclear extracts of OECM1 and HSC3 cells, lysed with RIPA buffer; 2 mg protein immunoprecipitated with a SIRT1 or Smad4 antibody (Pierce Crosslink IP Kit); western blot for Smad2, Smad4 and SIRT1; endogenous proteins
Conditions: remark: other sources report otherwise

binding: no binding
B1: Smad2, Q15796 1-467 (protein)
chain: MSSILPFTPPVVKRLLGWKKSAGGSGGAGGGEQNGQEEKWCEKAVKSLVKKLKKTGRLDELEKAITTQNCNTKCVTIPSTCSEIWGLSTPNTIDQWDTTGLYSFSEQTRSLDGRLQVSHRKGLPHVIYCRLWRWPDLHSHHELKAIENCEYAFNLKKDEVCVNPYHYQRVETPVLPPVLVPRHTEILTELPPLDDYTHSIPENTNFPAGIEPQSNYIPETPPPGYISEDGETSDQQLNQSMDTGSPAELSPTTLSPVNHSLDLQPVTYSEPAFWCSIAYYELNQRVGETFHASQPSLTVDGFTDPSNSERFCLGLLSNVNRNATVEMTRRHIGRGVRLYYIGGEVFAECLSDSAIFVQSPNCNQRYGWHPATVCKIPPGCNLKIFNNQEFAALLAQSVNQGFEAVYQLTRMCTIRMSFVKGWGAEYRRQTVTSTPCWIELHLNGPLQWLDKVLTQMGSPSVRCSSMS
